Results: the supplement of paper PMC3334620
The full ranking holds about 33,000 sequences; the median of “E-score (-0.5 to 0.5)” is about -8e-05, and the highest 2% start at about 0.23. The list shows a part of the results.

Biological target: T1, Nrg2 (UniProt P38082)
T1 sequence: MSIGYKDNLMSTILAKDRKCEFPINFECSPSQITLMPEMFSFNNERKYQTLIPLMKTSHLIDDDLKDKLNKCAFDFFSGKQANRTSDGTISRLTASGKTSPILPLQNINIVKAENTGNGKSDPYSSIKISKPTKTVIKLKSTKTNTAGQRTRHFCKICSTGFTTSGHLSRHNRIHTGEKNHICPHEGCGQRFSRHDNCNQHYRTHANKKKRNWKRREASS
Test: PBM E-score (8-mer binding enrichment) (E-score (-0.5 to 0.5)); higher = stronger / more preferred TF binding
Conditions: protein concentration: 100 nM; construct: GST-full length
Method: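 Universal 'all 10-mer' protein binding microarrays (Agilent AMADID 015681) probed with GST-tagged S. cerevisiae TFs (full-length or DBD) made by in vitro transcription/translation (PURExpress), about 100-200 nM. Bound TF was detected with fluorescent anti-GST. Each ungapped 8-mer (which stands for itself and its reverse complement) is scored by the PBM enrichment score (E-score), a modified Wilcoxon-Mann-Whitney statistic from -0.5 to +0.5, computed with the Universal PBM Analysis Suite. Scale: above 0.35 generally sequence-specific binding.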

Sequence	PBM E-score
ACAGTCCC	-0.103
GCATGCAC	0.103
CCGAATCA	-0.00689
GCCATTAA	0.0831
ACGCCAGC	-0.0279
GGCGACTA	-0.0199
CTCAATCC	-0.0337
TAGCCTCA	-0.0677
CTCCCCTA	-0.0407
ATTTTACA	-0.0773
CGCCGCAG	0.0765
CGCTTGCA	0.0782
CAACGGAC	-0.0576
ATGGGCCC	0.186
AGGGCGTC	-0.0155
CTTCGTGC	-0.0234
TCCCGACA	-0.0979
GTCCTCTA	-0.206
AAAGAATA	0.136
AATAAGAA	0.233
AGACTTCA	-0.194
AATTGGTA	0.12
GCTGTCTA	-0.0102
CGATTCAG	0.0573
CCATTAGC	-0.0358

Sequence	PBM E-score
CAAGGTCG	0.00137
AAGAGTCT	-0.213
CGGGCCTC	-0.0517
CACTGAAG	0.0593
CGAGTTAA	0.264
AAAACACC	-0.0282
ACGTAGCG	-0.117
CTTCAGCC	-0.229
ACGACAAA	0.128
AGCAGGCA	-0.211
TACCACAA	0.0795
TCCTAACA	0.0435
AGTCGATC	-0.0397
ACGGAGAC	0.0901
GCTAGCGA	0.0379
ACAAAGCG	0.0461
GATTAACA	0.171
ATGCTAGA	-0.108
ACCGAACC	-0.254
GGCGTATA	-0.174
AAGTTATA	0.0407
ACAGCCGT	-0.101
CGTAGGAA	-0.0744
CCATTGGC	-0.0477
AGTTTCGA	0.0135

Sequence	PBM E-score
ATTAGCAG	0.179
ATTACTAC	-0.219
TCGCGCCA	0.0872
AGACCTGG	-0.0485
TCATTAGA	0.0888
ATGGATGG	-0.113
CGGCTCGA	0.101
ATTACCGG	-0.18
CATCCTGG	0.0732
TCTAGTAA	0.0759
ACTCGGGC	-0.00664
GTTGTCGA	0.0581
GATGCACA	0.104
ATTTCCCC	0.153
AGCACATA	0.0815
ATGATGTA	0.174
ATGCTTTC	0.037
GAACTTGA	0.0309
ACGGACCG	-0.252
AAAAGAAG	0.0497
GGTATTTA	0.0832
CTATAGAA	-0.0392
GATGATCC	0.056
AGGTGGTG	-0.0695
CCGGAGAG	-0.0831

Sequence	PBM E-score
CTAACCGC	-0.188
ATCGTAGA	-0.0603
TTATCGAA	0.0758
CTAACTCC	-0.074
CTTACGTA	-0.165
AACGAGAA	0.0216
AACGAAAA	0.178
TAGTCGGA	0.0335
ACCCGAGT	0.0162
ACTAACCG	-0.0844
ATAAGAAA	0.101
AACTTTCC	0.00616
TACCTACA	0.156
AGTCTTGA	-0.0377
ACTGGGGA	-0.122
ATACGCAA	0.232
AACTGGAC	0.0787
CGATTCAC	-0.0274
AAGAAGCG	-0.132
AATTATCA	0.145
AGGACACG	-0.119
AATAAGCA	0.0921
AGGGTCGC	0.243
GAACGAGC	0.156
ACGCCAAG	-0.127

Sequence	PBM E-score
CCGGGCTC	-0.178
GCGGGAAC	0.0153
CCCACCAC	0.117
GATGGTGA	-0.0969
GACTGCGA	-0.0315
AACCTCCA	-0.367
CGCTGGAG	-0.0111
CACGAACG	-0.00575
CTAACGTC	-0.00975
GAGGACTA	-0.125
GAGTGACA	0.134
ACCGCCTG	-0.205
ATCTACCA	0.167
ATGCCTAA	-0.196
AGGTGCGA	-0.131
GCTGCTGA	0.0122
AGAAAGAA	-0.0402
CTGGAAGA	0.0145
ATTTTTCC	-0.0723
AACTGCGA	2e-05
AACCCCAG	0.237
AACCCCCG	-0.392
TCATTCGA	0.144
TAGATAGA	0.0651
AAACCGGG	0.0532

Rewritten with bars between the fields: entries from further up.
Sequence | PBM E-score
ATAAGAAA | 0.101
AACTTTCC | 0.00616
TACCTACA | 0.156
AGTCTTGA | -0.0377
ACTGGGGA | -0.122
ATACGCAA | 0.232
AACTGGAC | 0.0787
CGATTCAC | -0.0274
AAGAAGCG | -0.132
AATTATCA | 0.145
AGGACACG | -0.119
AATAAGCA | 0.0921
AGGGTCGC | 0.243
GAACGAGC | 0.156
ACGCCAAG | -0.127
CCGGGCTC | -0.178
GCGGGAAC | 0.0153
CCCACCAC | 0.117
GATGGTGA | -0.0969
GACTGCGA | -0.0315
AACCTCCA | -0.367
CGCTGGAG | -0.0111
CACGAACG | -0.00575
CTAACGTC | -0.00975
GAGGACTA | -0.125
GAGTGACA | 0.134
ACCGCCTG | -0.205
ATCTACCA | 0.167
ATGCCTAA | -0.196
AGGTGCGA | -0.131
GCTGCTGA | 0.0122
AGAAAGAA | -0.0402
CTGGAAGA | 0.0145
ATTTTTCC | -0.0723
AACTGCGA | 2e-05
AACCCCAG | 0.237
AACCCCCG | -0.392
TCATTCGA | 0.144
TAGATAGA | 0.0651

(continued)

Sequence	PBM E-score
ATTGCAAC	0.1
CCAACGCC	-0.11
CAAGCTGG	-0.0819
CTAGTTCA	0.105
AGATCGGC	-0.00341
AGGGATAG	0.0482
CTTTTTGC	0.155
AGATGTAG	-0.0495
TACTGATA	0.131
AGTCACAC	-0.0305
GCGCGTAA	0.127
ATTTAGAC	-0.0405
AAAGAACC	0.0591
AAAGGCCT	-0.275
GCAGCGTA	-0.128
AACTTTCA	0.0124
CTGACCGA	-0.05
GCTCTCCA	-0.0723
ATGAACTA	0.135
AGGTGCTA	-0.152
GATGGTGC	-0.383
ATGTCTAG	0.0513
CCTCGGTA	-0.284
CCCAGCCA	-0.0397
ATACGTGA	-0.0717

Sequence	PBM E-score
CGCGTTAG	0.0788
ACCTATGC	-0.124
ACGTCTTC	-0.0978
ACGCAAAC	0.0287
ACCCCAGC	0.0626
CCCGACAG	-0.165
ATTACGAA	-0.0193
CCCATCAG	-0.216
TATTTTAA	0.0391
CGGCATAG	-0.0721
CCCGTTAG	-0.208
AGGCCGGC	-0.0215
ATATGAAT	0.134
TCTCAAGA	0.0717
AATAGAGC	0.13
GGCCCGGA	-0.31
AAGAGTAC	0.142
CCGCGCCC	-0.0342
GTCTTGGA	-0.01
CGTATGGC	0.084
GCTCCCGA	-0.231
CGAGGTCA	0.0254
